According to PubChem BioAssay AID1347076 (National Center for Advancing Translational Sciences (NCATS), 2019):
Out of some 400,000 compounds screened, about 13,000 (3.2%) were called active. The inconclusive results got no clear call from the source; some entries with a clear call stand among them for comparison. The call rests on the fitted dose curve; in most records, active means well fitted cell-killing curve with a large enough effect; inconclusive means small, poorly fitted or top-dose-only effect, or effect the other way; inactive means flat fitted curve, though single readings scatter. Potencies of inconclusive entries are doubtful fits and often do not repeat.

assay: qHTS assay for MDR1-selective chemotherapeutics: Primary screen using the drug-selected MDR subline cells KB-V1; settings: KB-V1 MDR cells viability, CellTiter-Glo, 72 h; activity change, negative = cytotoxicity: at 46.1 µM (top of the series); further: nearly all actives have a fitted effect of over 60% in size
Procedure, shortened: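 KB-V1 cells (P-gp-expressing MDR subline of KB-3-1) in phenol-red-free DMEM with 10% FBS were exposed to library compounds over a concentration series for 72 h at 37 degrees C. Viability read by CellTiter-Glo luminescence; concentration-effect curves fitted after normalization.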
On the % scale 0 is the no-effect control and ±100 the full control effect; potency means the concentration at half of the fitted maximal effect.

Row | Structure (SMILES) | Potency | activity change, negative = cytotoxicity
1 | Cc1cccc(NC(=O)CN2C(=O)CC(c3ccccc3)Sc3ccccc32)c1 (configuration not stated) | inconclusive: 16.4 µM [cytotoxic, partial curve] | –
2 | O=C(CN1CCN(S(=O)(=O)c2ccc(Br)cc2)CC1)N/N=C/c1ccc(Br)s1 | active: 20.6 µM | –
3 | CCc1ccccc1Nc1nc2ccccc2[nH]1 | inconclusive: 18.4 µM [cytotoxic, single point] | –
4 | Cc1cc(C)c2c(n1)nn1c(N3CCN(c4ccccc4C)CC3)cc(C)nc21 | inconclusive: 16.4 µM [cytotoxic, single point] | –
5 | CC(C)C(=O)Nc1cccc(NC(=S)NC(=O)c2ccc(Cl)cc2)c1 | active: 2.91 µM | –
6 | O=C1COc2ccc(C(=O)COC(=O)c3ccccc3Cl)cc2N1 | inconclusive: 16.4 µM [cytotoxic, single point] | –
7 | O=C(NCc1cccnc1)c1cc(-c2ccccc2)on1 | inconclusive: 23.1 µM [cytotoxic, single point] | –
8 | CC(C)c1nc2oc3c(=O)[nH]cnc3c2c2c1CCC2 | inconclusive: 25.9 µM [cytotoxic, partial curve, poor fit] | –
9 | CCCCCn1c(=O)c(C(=O)c2ccccc2)nc2ccccc21 | active: 11.6 µM | –
10 | O=C(COC(=O)COc1ccc(Cl)cc1Br)NC1CCCCCC1 | inconclusive: 23.1 µM [cytotoxic, single point] | –
11 | COC(=O)CCCC(=O)N1CCC(CCC(=O)NC2CC2)CC1 | inactive | –
12 | O=C(NCc1ccccc1C(F)(F)F)C1CCC(=O)N(CCCc2ccccc2)C1 (configuration not stated) | inconclusive: 14.6 µM [cytotoxic, partial curve] | –
13 | Cc1nn(C)c(Oc2ccccc2)c1CCNS(=O)(=O)c1ccc(Cl)cc1 | active: 18.4 µM | –
14 | COc1cc2nc(=S)n3[nH]c(CCn4nc(C)cc4C)nc3c2cc1OC | inconclusive: 29.1 µM [cytotoxic, single point] | –
15 | Cc1ccc2c(c1)COc1c3ccc(C(=O)N4CCCCC4)cc3nn1-2 | inconclusive: 2.91 µM [cytotoxic, full curve] | –
16 | CN(C)c1cccc(C(=O)OC(C(=O)Nc2ccc([N+](=O)[O-])cc2Br)c2ccccc2)c1 (configuration not stated) | inconclusive: 9.2 µM [cytotoxic, partial curve, poor fit] | –
17 | Cn1nc(-c2ccc(Cl)cc2)cc1NC(=O)CC(C)(C)CC(=O)O | – | inconclusive: -40.2% [cytotoxic]
18 | Cc1ccc(OCC(=O)N/N=C\c2cn(C)c3ccccc23)c([N+](=O)[O-])c1 | inconclusive: 20.6 µM [cytotoxic, partial curve] | –
19 | Clc1ccc(-n2ncc3c(NCC4CCCO4)ncnc32)cc1 (configuration not stated) | active: 11.6 µM | –
20 | CCOC(=O)C(=O)Nc1ccc(Oc2ccccc2)cc1 | inconclusive: 18.4 µM [rising, partial curve] | –
21 | COC(=O)c1nn(-c2ccc(OC)cc2)c(=O)c2c(N)sc(C)c12 | inactive | –
22 | Cc1ccccc1N=C(NOCc1ccc(Cl)cc1Cl)c1nonc1N | inconclusive: 23.1 µM [cytotoxic, single point] | –
23 | CCOC(=O)c1c(C)c(C)n(Cc2ccc(OC)c(OC)c2)c1C | inconclusive: 29.1 µM [cytotoxic, single point] | –

Row | Structure (SMILES) | Potency | activity change, negative = cytotoxicity
24 | Cc1ccc2nsnc2c1NC(=O)c1ccc([N+](=O)[O-])cc1 | inconclusive: 29.1 µM [cytotoxic, single point] | –
25 | COCCCNC(=S)N(CCN(C)C)Cc1cc2cc3c(cc2[nH]c1=O)OCCO3 | inconclusive: 25.9 µM [rising, single point] | –
26 | Clc1cccc(Cl)c1-c1nnc2ccc(N3CCOCC3)nn12 | inconclusive: 32.6 µM [cytotoxic, single point] | –
27 | C[C@@H]1ON(C)[C@H]2C[C@H]3c4cc(N5CCOCC5)ccc4CCN3C(=O)[C@@H]12 | inactive | –
28 | COc1cc(NC(=O)c2cc([N+](=O)[O-])ccc2NC(=O)CNC2CCCCC2)cc(OC)c1 | inconclusive: 2.59 µM [cytotoxic, full curve, poor fit] | –
29 | COc1ccc(-c2cc(C(F)(F)F)nc(SCCC(=O)N3CCN4CCCC4C3)n2)cc1 (configuration not stated) | inconclusive: 8.2 µM [cytotoxic, partial curve] | –
30 | Cn1cc(S(=O)(=O)c2ccccc2)n(C)c1=O | inactive | –
31 | Fc1ccccc1-c1csc(=Nc2cccnc2)n1CCCn1ccnc1 | inconclusive: 13 µM [cytotoxic, partial curve, poor fit] | –
32 | COc1ccc(NC(=O)c2ccco2)cc1NC(=O)c1cccc(OC(C)C)c1 | inconclusive: 16.4 µM [cytotoxic, single point] | –
33 | COc1ccc(/C=N/N=C2/NC(=O)C(CC(=O)O)S2)cc1OS(=O)(=O)c1ccccc1 (configuration not stated) | inactive | –
34 | COc1cccc(NC(=O)Cn2c(=O)n(CCCCC(=O)NCc3ccc4c(c3)OCO4)c(=O)c3ccccc32)c1 | inconclusive: 1.46 µM [rising, full curve, poor fit] | –
35 | CNc1ccccc1C(C)(C)c1cc(-c2cccc([N+](=O)[O-])c2)no1 | inactive | –
36 | CCOC(=O)N1CCC(NC(=O)c2cnn(-c3ccc(C)cc3)c2C2CCN(C(=O)OC(C)(C)C)CC2)CC1 | inconclusive: 4.61 µM [rising, full curve, poor fit] | –
37 | COc1ccc(-n2c(SCc3nc(-c4ccc(Cl)cc4)no3)nnc2-c2ccncc2)cc1 | inconclusive: 14.6 µM [cytotoxic, partial curve, poor fit] | –
38 | COc1ccc(CCn2c(=S)[nH]c3cc(C(=O)N4CCOCC4)ccc3c2=O)cc1OC | inconclusive: 14.6 µM [cytotoxic, single point] | –
39 | O=C1C=C(NCCOC23CC4CC(CC(C4)C2)C3)C2(CCCCC2)O1 | inconclusive: 25.9 µM [cytotoxic, single point] | –
40 | O=C(c1noc2c1CCCCC2)N1CCOCC1 | inconclusive: 29.1 µM [rising, single point] | –
41 | Cc1[nH]c2ccccc2c(=O)c1CN1CCCCCC1 | inconclusive: 8.2 µM [rising, partial curve, poor fit] | –
42 | CCOC(=O)CN1CC(C)(C)N(CC(=O)OCC)CC1(C)C | inconclusive: 20.6 µM [cytotoxic, partial curve, poor fit] | –
43 | CC(C)(C)C(=O)Nc1ccc2nc(SCCOc3ccccc3Cl)sc2c1 | inactive | –
44 | O=C(CNC(=O)c1ccccc1F)N/N=C/c1cccnc1 | inactive | –
45 | Oc1cccc(Nc2cc(-c3ccccc3)ncn2)c1 | inconclusive: 3.66 µM [rising, full curve, poor fit] | –
46 | NC(=S)N/N=C1\CCOc2ccc(F)cc21 | inconclusive: 9.2 µM [cytotoxic, partial curve, poor fit] | –

From compound 27 up to 28, copied from above:
Row | Structure (SMILES) | Potency | activity change, negative = cytotoxicity
27 | C[C@@H]1ON(C)[C@H]2C[C@H]3c4cc(N5CCOCC5)ccc4CCN3C(=O)[C@@H]12 | inactive | –
28 | COc1cc(NC(=O)c2cc([N+](=O)[O-])ccc2NC(=O)CNC2CCCCC2)cc(OC)c1 | inconclusive: 2.59 µM [cytotoxic, full curve, poor fit] | –

Going on with the list:

Row | Structure (SMILES) | Potency | activity change, negative = cytotoxicity
47 | O=C1CCCc2nc(N3CCN(C(c4ccccc4)c4ccccc4)CC3)ncc21 | inconclusive: 16.4 µM [cytotoxic, single point] | –
48 | Cc1cc(C(=O)CN2C(=O)NC3(CCCc4sccc43)C2=O)c(C)n1-c1ccccc1 (configuration not stated) | inconclusive: 25.9 µM [cytotoxic, partial curve, poor fit] | –
49 | CCN1CCN(C(=O)CN(c2cc(OC)ccc2OC)S(C)(=O)=O)CC1 | inactive | –
50 | CC(=O)NC1=NC(=O)/C(=C/c2cn(C(C)=O)nc2-c2ccccc2)S1 | inconclusive: 11.6 µM [rising, partial curve, poor fit] | –
51 | CCc1ccc(S(=O)(=O)N2CCN(c3ccc(Cl)c(Cl)c3)CC2)cc1 | inconclusive: 20.6 µM [cytotoxic, partial curve] | –
52 | CC(C)c1ccccc1NC(=S)N(C)C | inactive | –
53 | CCCCOc1ccc(C(=O)N=c2sccn2C)cc1OC | inactive | –
54 | CCOC(=O)CC(C)(C)/C(C)=N/Nc1ccc([N+](=O)[O-])cc1[N+](=O)[O-] | inconclusive: 29.1 µM [cytotoxic, single point] | –
55 | Cc1ccc(NC(=O)Cn2c(=O)cnc3ccccc32)cc1S(=O)(=O)N1CCCCC1 | inconclusive: 20.6 µM [cytotoxic, single point] | –
56 | CCOC(=O)c1c(NC(=O)c2nn(C)cc2[N+](=O)[O-])sc(C)c1C | inactive | –
57 | CC1(C)CC(=O)C2=C(C1)c1c(ccc3ccccc13)NC2c1cc([N+](=O)[O-])cc([N+](=O)[O-])c1O (configuration not stated) | inactive | –
58 | CCOCCCNC(=O)Cn1cc2c(n1)-c1c(oc(C(=O)N3CCCC3)c1C)CC2 | inconclusive: 23.1 µM [cytotoxic, partial curve, poor fit] | –
59 | CCc1ccccc1NC(=O)c1cnn(-c2ccc(F)cc2)c1C1CCNCC1 | inconclusive: 29.1 µM [rising, single point] | –
60 | COc1ccc(-c2cc(-c3ccc4c(c3)NC(=O)CO4)nc3c2COc2ccc(C)cc2-3)cc1 | inconclusive: 29.1 µM [rising, single point] | –
61 | Cc1c(NC(=O)C(F)(F)F)ccc2nc3c(=O)n(C)c(=O)n(C)c3nc12 | active: 13 µM | –
62 | O=C1CCc2cc(S(=O)(=O)Nc3cccc(Br)c3)ccc2N1 | inactive | –
63 | Cc1sc(NC(=O)c2sc3nc4c(C)cccc4cc3c2N)c(C#N)c1C | inconclusive: 13 µM [cytotoxic, partial curve, poor fit] | –
64 | Nc1nc(N)c2nc(CNc3ccc(C(=O)NC(CCC(=O)O)C(=O)O)cc3)cnc2n1 (configuration not stated) | inactive | –
65 | CC(C)Cn1c(Br)nc2c1c(=O)n(CCC#N)c(=O)n2C | inconclusive: 29.1 µM [cytotoxic, single point] | –
66 | CN(Cc1c(F)cccc1Cl)C(=O)C1=CC=CN2CCS(=O)(=O)N=C12 | inconclusive: 29.1 µM [rising, single point] | –
67 | Cc1cccc(NC(=O)CN2C(=O)COc3ccc(Cl)cc32)c1 | inconclusive: 20.6 µM [cytotoxic, single point] | –
